“And” between values parts separate entries of the source, which are not always exact repeats. Equal entries are not always repeated. Some of the results follow. Further columns of the screen follow, without active or inactive calls. Compounds called inactive in the main read-out are mostly missing here. Words in brackets tell the shape of the fitted curve; partial curves, single points and poor fits give uncertain potencies.
Assay: qHTS Assay for Lipid Storage Modulators in Drosophila S3 Cells;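 on cell number change: cells counted by Cell Tracker Red CMTPX staining in the red channel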
Details: BODIPY lipid droplet fluorescence, 18-24 h; for cell number change: measured here: cell count max response, cells fed with added oleic acid
How it was run: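 Drosophila S3 cells got compounds at several concentrations plus oleic acid (400 uM solution). Laser-scanning cytometry with 488 nm excitation read lipid droplets at 500-530 nm and cells at 575-640 nm. Percent activity was relative to 20 uM Triacsin C.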

[1] = measured here: cell number channel AC50, cells fed with added oleic acid
[2] = measured here: lipid fluorescence (Fed channel) AC50, cells fed with added oleic acid

| Compound | cell number change | AC50 [1] | AC50 [2] |
| --- | --- | --- | --- |
| CC(Oc1ccccc1)C(=O)Nc1ccc(S(=O)(=O)N2CCCC2)cc1 (stereo not given) | 51.3% | 23.1 µM [rising, single point] | 0.112 µM [rising, full curve, poor fit] |
| CC(C)C(=O)Nc1cccc(-c2cnc3ccccc3n2)c1 | – | 1.16 µM [rising, partial curve] | 1.46 µM [rising, partial curve] |
| Nc1c2ccccc2nc2ccccc12 | -23.2% and -58.1% | 18.4 µM [falling, single point] | 20.6 µM [falling, single point] and 6.51 µM [rising, single point] |
| Cc1ccc(NC(=O)c2nc[nH]c2C(=O)N[C@H](C)c2ccccc2)cc1 | -66.9% | 20.6 µM [falling, single point] | – |
| C/C=C/c1ccc(OCC(O)CN2CCCCCCC2)c(OC)c1 (stereo not given) | -33.6% | 20.6 µM [falling, single point] | 29.1 µM [falling, single point] |
| Cc1ccc(NC(=O)C(CC(C)C)NC(N)=O)cc1 (stereo not given) | -42.5% | 29.1 µM [falling, single point] | 18.4 µM [rising, partial curve, poor fit] |
| CC(=O)Nc1sc(-c2ccccc2)nc1-c1ccccc1 | 5.4% | – | 0.92 µM [falling, full curve] |
| CCOc1ccccc1N1CCN(C(=O)CCCN2C(=O)c3cccc4cccc(c34)C2=O)CC1 | -11.3% | – | 18.4 µM [falling, single point] |
| O=C(COC(=O)CCC(=O)c1cccs1)NCc1ccco1 | -179% | 29.1 µM [falling, single point] | – |
| Cc1nn(-c2ccccc2)c2c1C(c1ccc([N+](=O)[O-])cc1)C(C#N)=C(N)O2 (stereo not given) | 19.7% | 0.651 µM [rising, full curve, poor fit] | 13 µM [falling, partial curve] |
| Cc1ccc(C)c(NS(=O)(=O)c2cc(C(N)=O)ccc2C)c1 | – | 0.13 µM [rising, full curve, poor fit] | 0.13 µM [rising, full curve, poor fit] |
| CC1CCCCN1C(=O)CSc1nnc(-c2c[nH]c3ccccc23)o1 (stereo not given) | 15.7% | 0.103 µM [rising, full curve, poor fit] | 0.184 µM [rising, full curve] |
| Cc1ccc(NC(=O)c2sc3nc[nH]c(=O)c3c2C)c(C)c1 | 7.91% | – | 8.2 µM [falling, partial curve, poor fit] |
| CCOC(=O)C1CCCCN1Cc1ccc(F)cc1 (stereo not given) | -92.2% | 32.6 µM [falling, partial curve] | 0.731 µM [rising, full curve, poor fit] |
| CCOc1ccc(NC(=O)CN2C(=O)COc3ccc(S(=O)(=O)N4CCCCC4)cc32)cc1 | 20.3% | – | 13 µM [rising, partial curve] |
| COCCCNC(=O)Cn1cnc2sc(C)c(S(=O)(=O)N3CC(C)CC(C)C3)c2c1=O (stereo not given) | 11.1% | – | – |
| N#C/C(=C(/O)Cc1ccccc1)P(=O)(c1ccccc1)c1ccccc1 | 27.7% | – | – |
| NC(=O)c1ccc(NC(=O)c2ccc(CN3CCOCC3)cc2)cc1 | -35.9% | 3.66 µM [falling, full curve] | 29.1 µM [falling, single point] |
| O=C(Nc1ccccc1)c1ccccc1N=Cc1cccc(O)c1 | -50.4% | 20.6 µM [falling, single point] | 29.1 µM [falling, single point] |
| S=C(c1ccc(-c2ccc(Br)cc2)o1)N1CCOCC1 | -20.1% | – | – |
| Cc1cc(=O)oc2cc(OCC(=O)OCC(=O)Nc3ccccc3F)ccc12 | -27.8% | 1.64 µM [falling, full curve, poor fit] | 2.59 µM [falling, full curve, poor fit] |
| CCOc1ccccc1NC(=O)NC1Cc2ccccc2C1 | 22.2% | – | 29.1 µM [rising, single point] |
| Cc1nc(-c2ccc(F)cc2)c(CC(=O)N(C)CC(=O)Nc2ccccc2Br)s1 | 0.223% | – | – |
| CCCCCN(C(=O)CCC(=O)OCc1cc(C)ccc1C)c1c(N)n(CCCC)c(=O)[nH]c1=O | -5.77% | – | 0.206 µM [falling, full curve, poor fit] |
| O=C(COC(=O)c1ccccc1C(=O)N1CCN(c2ccccc2)CC1)NCc1ccccc1 | 18.2% | 0.092 µM [falling, full curve, poor fit] | 0.103 µM [falling, full curve, poor fit] |
| CCOc1ccc(CCNC(=O)CCn2ccc3cc(S(=O)(=O)N4CCCC4)ccc32)cc1 | 10.4% | – | 2.59 µM [rising, single point] |
| Cc1cc(O)c(-c2cc(C(=O)NCc3ccc4c(c3)OCO4)[nH]n2)cc1C | -25.8% | – | 29.1 µM [rising, single point] |
| COc1ccccc1-c1nnc2sc(-c3cc4ccccc4o3)nn12 | – | – | 0.058 µM [rising, full curve, poor fit] |

| Compound | cell number change | AC50 [1] | AC50 [2] |
| --- | --- | --- | --- |
| CCc1ccc(CNC(=O)CCS(=O)(=O)Cc2ccc(C)cc2)cc1 | – | – | 29.1 µM [rising, single point] |
| CCn1cc(C(=O)N2CCN(c3ccc(OC)cc3)CC2)c(=O)c2cc(S(=O)(=O)N3CCOCC3)ccc21 | 4.59% | – | 4.61 µM [rising, single point] |
| Cc1ccc(N(C)S(=O)(=O)c2cccc(C(=O)OCC(=O)N3CCCC(C)C3)c2)cc1 (stereo not given) | 28.3% | – | 2.06 µM [rising, partial curve, poor fit] |
| COc1cc2c(cc1OC)C(C1(O)CCCCC1)NCC2 (stereo not given) | 15.9% | – | 0.13 µM [falling, full curve, poor fit] |
| CC(C)c1ccc(-n2c(-c3ccccc3)c[n+]3c2CCc2ccccc2-3)cc1 | -65.4% | – | – |
| CC(=O)N1Cc2cc(N)ccc2Oc2ccccc21 | 33.9% | 0.411 µM [rising, full curve] | – |
| Cc1cc(C(=O)NC(C)C2CC2)c(Cl)cc1Cl (stereo not given) | 7.3% | – | 0.82 µM [rising, full curve] |
| Cc1cccc(C)c1NC(=O)C(C)Sc1nnc(C)n1CC1CCCO1 (stereo not given) | -21% | – | 1.16 µM [falling, full curve] |
| O=C(CCCCn1c(=O)[nH]c2ccsc2c1=O)NCC1CCCO1 (stereo not given) | 2.22% | 0.82 µM [falling, full curve, poor fit] | 0.651 µM [falling, full curve] |
| N#CCc1ccc(NS(=O)(=O)c2ccc(C3CCCCC3)cc2)cc1 | -24.8% | – | 16.4 µM [falling, single point] |
| COc1ccc(NC(=O)c2cc(S(=O)(=O)N3CCCCC3)c[nH]2)c(OC)c1 | 13.5% | – | – |
| CCOc1ccc(NC(=O)NC23CC4CC(CC(C4)C2)C3)cc1 | -10.7% | – | 5.17 µM [falling, partial curve] |
| CC(C)C[C@H](NC(=O)c1nc[nH]c1C(=O)NC1CCN(C(=O)OC(C)(C)C)CC1)C(=O)OC(C)(C)C | -33.4% | 16.4 µM [falling, single point] | 18.4 µM [falling, partial curve] |
| O=C(O)c1cc(-c2ccc(Cl)s2)nc2ccccc12 | 43.4% | 5.8 µM [rising, partial curve, poor fit] | 1.84 µM [rising, partial curve, poor fit] |
| COc1cc(C(C)=O)ccc1COc1ccc(C(=O)OCC(=O)NC2CCS(=O)(=O)C2)cc1OC (stereo not given) | 42.5% | 8.2 µM [rising, partial curve] | 2.06 µM [rising, partial curve, poor fit] |
| O=C(O)c1ccc2c(c1)C(=O)N(c1nccs1)C2=O | -37.4% | 25.9 µM [falling, single point] | 16.4 µM [falling, partial curve] |
| Cc1onc(-c2ccccc2)c1C(=O)Nc1cccc(C#N)c1 | 75% | 16.4 µM [rising, single point] | – |
| Cc1ccc(C(=O)CC2(O)C(=O)N(C)c3ccccc32)o1 (stereo not given) | -116% | 25.9 µM [falling, partial curve] | 20.6 µM [falling, partial curve] |
| O=C(/C=C/c1ccc([N+](=O)[O-])cc1)NCCN1C(=O)S/C(=C\c2ccc(F)cc2)C1=O | -2.55% | – | – |
| CN(CC(=O)Nc1cccc(F)c1)C(=O)c1ccc2c(c1)CC(c1ccccc1)OC2=O (stereo not given) | 8.61% | 4.61 µM [falling, single point] | – |
| OCCNc1c2ccccc2nc2c(F)c(F)c(F)c(F)c12 | -36.4% | 3.66 µM [falling, full curve] | 2.59 µM [falling, full curve] |
| CC(=O)c1ccc(Oc2cc(-c3ccccc3)nc(-c3ccccc3)n2)cc1 | 10.8% | – | – |
| COc1ccc(C2=NS(=O)(=O)N(C)C(C(=O)Nc3ccc4c(c3)OCO4)=C2)cc1 | 16.2% | – | 29.1 µM [falling, single point] |
| CC(=O)Oc1ccc2c(c1)c(C(C)=O)c(C)n2C | – | 2.31 µM [rising, partial curve] | – |
| COC(=O)Nc1ccc(S(=O)(=O)Nc2cnc3ccccc3n2)cc1 | 13.1% | – | – |
| CCOC(=O)c1c(C)n(C)c2c1cc(OC(C)=O)c1ccccc12 | 17.2% | – | – |
| Cc1onc(-c2c(F)cccc2Cl)c1C(=O)Nc1nnc(C(F)(F)F)s1 | 19.7% | – | 0.013 µM [rising, full curve, poor fit] |

Part of the list above, as comma-separated lines.
Compound,cell number change,AC50 [1],AC50 [2]
O=C(Nc1ccccc1)c1ccccc1N=Cc1cccc(O)c1,-50.4%,"20.6 µM [falling, single point]","29.1 µM [falling, single point]"
S=C(c1ccc(-c2ccc(Br)cc2)o1)N1CCOCC1,-20.1%,–,–
Cc1cc(=O)oc2cc(OCC(=O)OCC(=O)Nc3ccccc3F)ccc12,-27.8%,"1.64 µM [falling, full curve, poor fit]","2.59 µM [falling, full curve, poor fit]"
CCOc1ccccc1NC(=O)NC1Cc2ccccc2C1,22.2%,–,"29.1 µM [rising, single point]"
Cc1nc(-c2ccc(F)cc2)c(CC(=O)N(C)CC(=O)Nc2ccccc2Br)s1,0.223%,–,–
CCCCCN(C(=O)CCC(=O)OCc1cc(C)ccc1C)c1c(N)n(CCCC)c(=O)[nH]c1=O,-5.77%,–,"0.206 µM [falling, full curve, poor fit]"
O=C(COC(=O)c1ccccc1C(=O)N1CCN(c2ccccc2)CC1)NCc1ccccc1,18.2%,"0.092 µM [falling, full curve, poor fit]","0.103 µM [falling, full curve, poor fit]"
CCOc1ccc(CCNC(=O)CCn2ccc3cc(S(=O)(=O)N4CCCC4)ccc32)cc1,10.4%,–,"2.59 µM [rising, single point]"
Cc1cc(O)c(-c2cc(C(=O)NCc3ccc4c(c3)OCO4)[nH]n2)cc1C,-25.8%,–,"29.1 µM [rising, single point]"
COc1ccccc1-c1nnc2sc(-c3cc4ccccc4o3)nn12,–,–,"0.058 µM [rising, full curve, poor fit]"
CCc1ccc(CNC(=O)CCS(=O)(=O)Cc2ccc(C)cc2)cc1,–,–,"29.1 µM [rising, single point]"
CCn1cc(C(=O)N2CCN(c3ccc(OC)cc3)CC2)c(=O)c2cc(S(=O)(=O)N3CCOCC3)ccc21,4.59%,–,"4.61 µM [rising, single point]"
